These are yes or no findings as the source states them, for the method shown. Binding seen in cells or lysates may run through a third protein. Some entries that bind do so weakly or less than the wild type. For part of these data: Sequences can lack the tags named with a protein.
Legend:
Assay in all cases: cross-linking; XL-MS on isolated intact yeast vacuoles; 1 mM Azide-A-DSBSO (lysine-lysine), 20 min at room temperature, 10 mM HEPES/KOH pH 7.4 buffers; 2% FDR at unique lysine-lysine connection level
[1] = target: T1, Nyv1 (Saccharomyces cerevisiae (endogenous in isolated vacuoles)) (UniProt Q12255)
T1 sequence: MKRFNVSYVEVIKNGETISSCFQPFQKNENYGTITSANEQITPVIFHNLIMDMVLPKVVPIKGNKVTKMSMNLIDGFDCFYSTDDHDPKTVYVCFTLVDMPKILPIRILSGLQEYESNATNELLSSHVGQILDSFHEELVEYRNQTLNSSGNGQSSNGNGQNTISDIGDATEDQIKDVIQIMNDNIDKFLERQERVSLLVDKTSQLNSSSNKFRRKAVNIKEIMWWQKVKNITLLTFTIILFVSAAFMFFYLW

Protein sequences, listed by entry. Tags and fused reporters are not part of them.
UniProt Q03308: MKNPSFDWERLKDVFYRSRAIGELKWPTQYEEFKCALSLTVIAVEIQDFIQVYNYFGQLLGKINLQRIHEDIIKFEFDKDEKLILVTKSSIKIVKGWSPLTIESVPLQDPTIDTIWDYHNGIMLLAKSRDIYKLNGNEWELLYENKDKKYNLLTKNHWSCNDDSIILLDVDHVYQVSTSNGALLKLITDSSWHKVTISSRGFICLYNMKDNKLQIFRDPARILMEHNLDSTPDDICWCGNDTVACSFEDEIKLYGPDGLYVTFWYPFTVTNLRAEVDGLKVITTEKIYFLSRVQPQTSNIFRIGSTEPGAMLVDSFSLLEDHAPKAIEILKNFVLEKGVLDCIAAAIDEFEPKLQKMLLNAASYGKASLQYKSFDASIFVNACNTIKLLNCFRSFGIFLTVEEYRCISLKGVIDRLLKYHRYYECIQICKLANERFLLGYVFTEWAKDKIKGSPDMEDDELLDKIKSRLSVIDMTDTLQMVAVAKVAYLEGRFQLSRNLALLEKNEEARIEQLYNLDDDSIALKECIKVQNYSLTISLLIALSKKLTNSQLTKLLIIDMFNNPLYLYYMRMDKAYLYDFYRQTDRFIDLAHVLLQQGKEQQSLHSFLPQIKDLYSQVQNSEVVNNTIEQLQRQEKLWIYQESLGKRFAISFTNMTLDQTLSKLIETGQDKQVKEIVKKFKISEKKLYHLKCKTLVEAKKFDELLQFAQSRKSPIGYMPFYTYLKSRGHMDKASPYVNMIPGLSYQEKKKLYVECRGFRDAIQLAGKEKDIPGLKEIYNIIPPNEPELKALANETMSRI
UniProt P20795: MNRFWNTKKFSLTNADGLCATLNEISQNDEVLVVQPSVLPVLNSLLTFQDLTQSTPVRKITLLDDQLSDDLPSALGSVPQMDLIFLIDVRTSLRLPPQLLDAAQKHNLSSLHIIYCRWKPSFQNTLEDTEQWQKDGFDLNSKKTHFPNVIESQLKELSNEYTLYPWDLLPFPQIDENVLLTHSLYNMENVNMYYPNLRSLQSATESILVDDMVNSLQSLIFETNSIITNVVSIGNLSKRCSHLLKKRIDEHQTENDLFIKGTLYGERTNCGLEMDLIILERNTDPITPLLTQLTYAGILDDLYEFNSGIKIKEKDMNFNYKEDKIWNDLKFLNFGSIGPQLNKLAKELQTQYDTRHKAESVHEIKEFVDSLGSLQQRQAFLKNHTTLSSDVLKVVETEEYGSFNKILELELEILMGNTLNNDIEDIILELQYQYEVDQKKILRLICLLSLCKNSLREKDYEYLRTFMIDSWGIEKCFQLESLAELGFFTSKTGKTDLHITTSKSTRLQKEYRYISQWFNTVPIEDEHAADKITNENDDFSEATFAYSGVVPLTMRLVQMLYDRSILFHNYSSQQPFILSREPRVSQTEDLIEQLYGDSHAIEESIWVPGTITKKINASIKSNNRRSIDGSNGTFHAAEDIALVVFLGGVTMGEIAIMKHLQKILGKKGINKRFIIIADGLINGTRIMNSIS
UniProt Q04338: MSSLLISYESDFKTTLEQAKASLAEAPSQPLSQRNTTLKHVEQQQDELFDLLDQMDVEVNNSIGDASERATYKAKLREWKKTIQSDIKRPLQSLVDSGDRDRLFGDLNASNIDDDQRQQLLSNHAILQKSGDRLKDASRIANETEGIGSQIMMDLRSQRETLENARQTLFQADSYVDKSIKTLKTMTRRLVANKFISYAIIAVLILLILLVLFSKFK
UniProt P39940: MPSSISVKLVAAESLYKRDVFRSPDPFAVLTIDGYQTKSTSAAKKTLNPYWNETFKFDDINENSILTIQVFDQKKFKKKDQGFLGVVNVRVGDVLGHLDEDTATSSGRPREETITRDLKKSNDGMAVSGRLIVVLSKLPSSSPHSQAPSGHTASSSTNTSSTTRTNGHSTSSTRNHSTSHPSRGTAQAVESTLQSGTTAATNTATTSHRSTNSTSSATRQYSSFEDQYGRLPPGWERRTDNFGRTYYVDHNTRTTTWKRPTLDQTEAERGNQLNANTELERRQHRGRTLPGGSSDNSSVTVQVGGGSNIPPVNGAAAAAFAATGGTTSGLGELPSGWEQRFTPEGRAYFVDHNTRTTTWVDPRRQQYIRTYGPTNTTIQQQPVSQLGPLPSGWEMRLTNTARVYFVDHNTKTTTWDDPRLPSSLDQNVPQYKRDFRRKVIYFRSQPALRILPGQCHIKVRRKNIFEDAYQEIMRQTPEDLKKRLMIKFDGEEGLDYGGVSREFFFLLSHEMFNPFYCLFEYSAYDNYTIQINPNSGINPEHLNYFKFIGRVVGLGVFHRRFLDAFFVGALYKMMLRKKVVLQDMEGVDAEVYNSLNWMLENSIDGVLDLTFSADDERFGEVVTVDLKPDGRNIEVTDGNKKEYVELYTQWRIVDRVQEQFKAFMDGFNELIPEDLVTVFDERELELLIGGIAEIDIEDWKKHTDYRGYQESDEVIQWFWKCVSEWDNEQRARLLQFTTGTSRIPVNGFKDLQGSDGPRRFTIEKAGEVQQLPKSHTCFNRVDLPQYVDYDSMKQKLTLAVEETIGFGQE
UniProt P32939: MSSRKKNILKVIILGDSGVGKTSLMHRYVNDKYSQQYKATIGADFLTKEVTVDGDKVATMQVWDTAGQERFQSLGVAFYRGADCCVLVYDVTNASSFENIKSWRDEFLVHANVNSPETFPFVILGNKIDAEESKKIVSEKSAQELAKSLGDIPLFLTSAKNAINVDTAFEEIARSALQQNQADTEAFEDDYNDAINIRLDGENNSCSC

[2] = target: T2, Ssh4 (adapter protein of Rsp5) (Saccharomyces cerevisiae (endogenous in isolated vacuoles)) (UniProt P32343)
T2 sequence: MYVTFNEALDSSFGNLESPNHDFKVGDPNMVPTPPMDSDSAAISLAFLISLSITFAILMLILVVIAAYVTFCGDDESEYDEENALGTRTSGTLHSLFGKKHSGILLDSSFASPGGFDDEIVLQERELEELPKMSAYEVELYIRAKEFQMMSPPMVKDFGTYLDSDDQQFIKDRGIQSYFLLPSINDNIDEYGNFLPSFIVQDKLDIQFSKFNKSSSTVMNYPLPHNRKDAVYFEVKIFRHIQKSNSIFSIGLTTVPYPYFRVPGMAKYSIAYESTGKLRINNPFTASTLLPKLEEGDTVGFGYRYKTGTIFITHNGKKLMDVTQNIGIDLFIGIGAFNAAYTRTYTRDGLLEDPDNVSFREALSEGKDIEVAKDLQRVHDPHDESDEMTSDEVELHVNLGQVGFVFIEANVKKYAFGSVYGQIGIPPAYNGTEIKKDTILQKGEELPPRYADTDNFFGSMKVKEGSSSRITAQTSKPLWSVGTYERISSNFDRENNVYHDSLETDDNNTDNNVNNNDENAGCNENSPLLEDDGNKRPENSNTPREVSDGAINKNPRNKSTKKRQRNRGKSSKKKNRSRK

[3] = target: T3, Ivy1 (Saccharomyces cerevisiae (endogenous in isolated vacuoles)) (UniProt Q04934)
T3 sequence: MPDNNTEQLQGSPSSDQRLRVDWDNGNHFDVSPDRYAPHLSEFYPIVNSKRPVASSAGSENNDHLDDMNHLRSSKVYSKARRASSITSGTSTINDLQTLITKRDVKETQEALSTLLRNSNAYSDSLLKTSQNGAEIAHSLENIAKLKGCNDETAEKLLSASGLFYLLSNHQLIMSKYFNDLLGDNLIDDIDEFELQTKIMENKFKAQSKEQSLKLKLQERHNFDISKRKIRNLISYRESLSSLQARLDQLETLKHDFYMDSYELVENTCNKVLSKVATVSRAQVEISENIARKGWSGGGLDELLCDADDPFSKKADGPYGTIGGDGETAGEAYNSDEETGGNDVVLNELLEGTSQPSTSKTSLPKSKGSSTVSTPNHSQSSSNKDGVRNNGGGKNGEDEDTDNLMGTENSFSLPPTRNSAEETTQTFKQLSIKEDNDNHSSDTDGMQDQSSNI

[4] = target: T4, Sec17 (homolog of alpha-SNAP) (Saccharomyces cerevisiae (endogenous in isolated vacuoles)) (UniProt P32602)
T4 sequence: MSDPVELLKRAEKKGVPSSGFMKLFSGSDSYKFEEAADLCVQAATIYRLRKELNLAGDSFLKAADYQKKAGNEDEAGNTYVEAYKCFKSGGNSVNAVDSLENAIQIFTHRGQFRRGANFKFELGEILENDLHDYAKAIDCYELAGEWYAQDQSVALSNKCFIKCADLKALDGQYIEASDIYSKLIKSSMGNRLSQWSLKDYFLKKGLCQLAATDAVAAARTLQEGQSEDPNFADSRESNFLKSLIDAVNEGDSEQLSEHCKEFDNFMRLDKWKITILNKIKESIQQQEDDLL

[5] = target: T5, Vam3 (Saccharomyces cerevisiae (endogenous in isolated vacuoles)) (UniProt Q12241)
T5 sequence: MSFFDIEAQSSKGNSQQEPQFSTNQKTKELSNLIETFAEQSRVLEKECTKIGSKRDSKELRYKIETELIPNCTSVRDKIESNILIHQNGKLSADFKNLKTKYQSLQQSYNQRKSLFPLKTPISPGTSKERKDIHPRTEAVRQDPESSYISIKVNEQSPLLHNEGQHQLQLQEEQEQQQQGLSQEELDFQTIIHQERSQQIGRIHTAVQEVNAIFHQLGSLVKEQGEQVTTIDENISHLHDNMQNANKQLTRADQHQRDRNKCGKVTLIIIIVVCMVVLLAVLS

[6] = target: Vps16 (Saccharomyces cerevisiae (endogenous in isolated vacuoles)) (UniProt Q03308)
[7] = target: Vps33 (Saccharomyces cerevisiae (endogenous in isolated vacuoles)) (UniProt P20795)
[8] = target: T6, Sec17 (homolog of alpha-SNAP) (Saccharomyces cerevisiae (endogenous in isolated vacuoles)), P32602; conditions: remark: other sources report otherwise
T6 chain: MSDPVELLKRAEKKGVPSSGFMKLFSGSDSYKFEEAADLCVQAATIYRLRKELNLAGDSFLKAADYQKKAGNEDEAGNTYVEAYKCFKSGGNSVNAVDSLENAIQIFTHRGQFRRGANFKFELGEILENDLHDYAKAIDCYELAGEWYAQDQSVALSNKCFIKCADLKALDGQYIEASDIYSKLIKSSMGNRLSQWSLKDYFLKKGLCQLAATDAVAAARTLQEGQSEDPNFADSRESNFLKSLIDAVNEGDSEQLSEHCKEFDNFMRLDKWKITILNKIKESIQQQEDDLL

[9] = target: T7, Lcb4 (palmitoylated protein) (Saccharomyces cerevisiae (endogenous in isolated vacuoles)) (UniProt Q12246)
T7 sequence: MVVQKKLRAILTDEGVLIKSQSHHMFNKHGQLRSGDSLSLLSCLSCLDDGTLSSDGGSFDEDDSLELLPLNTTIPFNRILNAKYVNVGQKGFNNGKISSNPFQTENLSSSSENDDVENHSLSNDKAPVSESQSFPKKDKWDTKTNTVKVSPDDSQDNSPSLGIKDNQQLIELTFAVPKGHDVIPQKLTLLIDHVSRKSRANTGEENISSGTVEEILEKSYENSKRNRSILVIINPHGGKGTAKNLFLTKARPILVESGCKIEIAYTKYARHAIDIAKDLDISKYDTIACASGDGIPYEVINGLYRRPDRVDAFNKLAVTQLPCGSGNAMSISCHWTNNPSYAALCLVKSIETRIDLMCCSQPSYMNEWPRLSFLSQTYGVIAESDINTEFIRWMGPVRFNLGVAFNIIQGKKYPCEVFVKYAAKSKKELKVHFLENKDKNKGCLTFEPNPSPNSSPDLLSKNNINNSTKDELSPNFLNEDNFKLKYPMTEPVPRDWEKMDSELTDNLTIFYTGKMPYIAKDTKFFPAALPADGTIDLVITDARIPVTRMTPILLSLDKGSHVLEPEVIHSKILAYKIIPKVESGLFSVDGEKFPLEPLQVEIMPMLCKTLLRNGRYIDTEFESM

Molecule: Vti1 (from UniProt Q04338 1-217)
- binding [1]: binds

Molecule: Rsp5 (ubiquitin ligase) (from UniProt P39940 1-809) (enzyme)
- binding [2]: binds

Molecule: Ypt7 (vacuolar Rab GTPase) (from UniProt P32939 1-208)
- binding [3]: binds

B1: Ykt6 (protein, UniProt P36015 1-200)
chain: MRIYYIGVFRSGGEKALELSEVKDLSQFGFFERSSVGQFMTFFAETVASRTGAGQRQSIEEGNYIGHVYARSEGICGVLITDKEYPVRPAYTLLNKILDEYLVAHPKEEWADVTETNDALKMKQLDTYISKYQDPSQADAIMKVQQELDETKIVLHKTIENVLQRGEKLDNLVDKSESLTASSKMFYKQAKKSNSCCIIM
- binding [4]: binds
- binding [5]: binds

B2: Nyv1 (protein, UniProt Q12255 1-253)
chain: MKRFNVSYVEVIKNGETISSCFQPFQKNENYGTITSANEQITPVIFHNLIMDMVLPKVVPIKGNKVTKMSMNLIDGFDCFYSTDDHDPKTVYVCFTLVDMPKILPIRILSGLQEYESNATNELLSSHVGQILDSFHEELVEYRNQTLNSSGNGQSSNGNGQNTISDIGDATEDQIKDVIQIMNDNIDKFLERQERVSLLVDKTSQLNSSSNKFRRKAVNIKEIMWWQKVKNITLLTFTIILFVSAAFMFFYLW
- binding [6]: binds
- binding [7]: binds

B3: Vam3 (protein, UniProt Q12241 1-283)
chain: MSFFDIEAQSSKGNSQQEPQFSTNQKTKELSNLIETFAEQSRVLEKECTKIGSKRDSKELRYKIETELIPNCTSVRDKIESNILIHQNGKLSADFKNLKTKYQSLQQSYNQRKSLFPLKTPISPGTSKERKDIHPRTEAVRQDPESSYISIKVNEQSPLLHNEGQHQLQLQEEQEQQQQGLSQEELDFQTIIHQERSQQIGRIHTAVQEVNAIFHQLGSLVKEQGEQVTTIDENISHLHDNMQNANKQLTRADQHQRDRNKCGKVTLIIIIVVCMVVLLAVLS
- binding [6]: binds
- binding [1]: binds

B4: Nyv1, Q12255 1-253 (protein)
chain: MKRFNVSYVEVIKNGETISSCFQPFQKNENYGTITSANEQITPVIFHNLIMDMVLPKVVPIKGNKVTKMSMNLIDGFDCFYSTDDHDPKTVYVCFTLVDMPKILPIRILSGLQEYESNATNELLSSHVGQILDSFHEELVEYRNQTLNSSGNGQSSNGNGQNTISDIGDATEDQIKDVIQIMNDNIDKFLERQERVSLLVDKTSQLNSSSNKFRRKAVNIKEIMWWQKVKNITLLTFTIILFVSAAFMFFYLW
- binding [8]: binds

B5: Vam3, Q12241 1-283 (protein)
chain: MSFFDIEAQSSKGNSQQEPQFSTNQKTKELSNLIETFAEQSRVLEKECTKIGSKRDSKELRYKIETELIPNCTSVRDKIESNILIHQNGKLSADFKNLKTKYQSLQQSYNQRKSLFPLKTPISPGTSKERKDIHPRTEAVRQDPESSYISIKVNEQSPLLHNEGQHQLQLQEEQEQQQQGLSQEELDFQTIIHQERSQQIGRIHTAVQEVNAIFHQLGSLVKEQGEQVTTIDENISHLHDNMQNANKQLTRADQHQRDRNKCGKVTLIIIIVVCMVVLLAVLS
- binding [8]: binds

B6: Akr1 (palmitoyltransferase) (enzyme, UniProt P39010 1-764)
chain: MVNELENVPRASTLTNEEQTVDPSNNDSQEDISLGDSNEITSLASLKAIRSGNEEESGNEQVNHNDEAEEDPLLTRYHTACQRGDLATVKEMIHGKLLEVNNDGDSTEHITGLHWASINNRLSVVDFLVSQGADVNARAGALHATPLHWAARYGYVYIVDFLLKHGADPTMTDDQGFNLLHLSVNSSNIMLVLYVLFNVVSKGLLDIDCRDPKGRTSLLWAAYQGDSLTVAELLKFGASIKIADTEGFTPLHWGTVKGQPHVLKYLIQDGADFFQKTDTGKDCFAIAQEMNTVYSLREALTHSGFDYHGYPIKKWFKKSQHAKLVTFITPFLFLGIAFALFSHINPLFVIIVLFLLAIATNKGLNKFVLPSYGRMGVHNVTLLRSPLLSGVFFGTLLWVTIVWFFKVMPRTFSDEQYTNILMLVILVSVFYLFGQLVIMDPGCLPEETDHENVRQTISNLLEIGKFDTKNFCIETWIRKPLRSKFSPLNNAVVARFDHYCPWIFNDVGLKNHKAFIFFITLMESGIFTFLALCLEYFDELEDAHEDTSQKNGKCFILGASDLCSGLIYDRFVFLILLWALLQSIWVASLIFVQAFQICKGMTNTEFNVLMKESKSIGPDGLSFNENFNTTPEGFAPSIDPGEESNDTVLAPVPGSTIRKPRTCFGVCYAVTGMDQWLAVIKETIGIKDSTGHNVYSITSRIPTNYGWKRNVKDFWLTSDINAPLWRRILYPPSGSKALLNGIEVDYFKLYKLPNKDVEQGNDMV
- binding [9]: binds
